Measurements reported in patent US20160159869A1 (NORTHWESTERN UNIVERSITY, published 2016).
Results are given in words; binding and its absence hold for the method and conditions named. Some binding calls cover weakened binding; strength is not graded here.

Tests used:
[1] = molecular target: T1, Recombinant human BMP-2 (Medtronic Sofamor Danek) (human) (UniProt P12643); assay: capture of BMP-2 by PA gel from medium, sandwich ELISA
T1 sequence (looked up): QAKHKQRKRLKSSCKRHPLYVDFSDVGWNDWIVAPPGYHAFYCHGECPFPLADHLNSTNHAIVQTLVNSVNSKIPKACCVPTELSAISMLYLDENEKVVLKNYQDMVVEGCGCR

[2] = molecular target: T1, Recombinant human BMP-2 (Medtronic Sofamor Danek) (human); assay: capture of BMP-2 by PA gel from medium, 16 h, sandwich ELISA
[3] = molecular target: T1, Recombinant human BMP-2 (Medtronic Sofamor Danek) (human); assay: Capture of BMP-2 from medium (25 ng BMP-2 in 1 mL) by a 20 uL PA gel at 37 C. BMP-2 left in the medium was quantified by sandwich ELISA.

Measured: binding

VVVAAAEEE (C16 alkyl tail covalently attached at the N-terminus; C-terminal COOH) [diluent PA, C16-V3A3E3-COOH]
binds: all assays above
